# Test: Glycosylation pattern of Protein-A purified mAb analyzed with 2AB
# Settings: end of 14-day production process
# Experimental: At the end of main culture production process, cell culture fluid was collected through centrifugation. The supernatants were further subjected to small-scale mAb purification with Protein-A. Glycosylation pattern of the purified mAb was analyzed with 2AB.
substance,measurement,setting,value
anti-α-synuclein antibody L971: anti-human α-synuclein monoclonal antibody expressed by CHO L971 cell-line; CHO L971 cells produce Prasinezumab,G2 form compared with the process with 4 mM L-cystine,"FIG. 10C, Example 7, CHO L971, process with 2 mM L-cystine vs 4 mM L-cystine",comparable
same,G1 form compared with the process with 3 mM L-cystine,"FIG. 11A, Example 8, CHO L971, process with 6 mM L-cysteine vs 3 mM L-cystine",only marginally higher
same,G2 form compared with the process with 3 mM L-cystine,"FIG. 11B, Example 8, CHO L971, process with 6 mM L-cysteine vs 3 mM L-cystine",comparable

# — US12637517B2, “Enzyme and pathway modulation with sulfhydryl compounds and their derivatives” (HOFFMANN-LA ROCHE INC., priority 2020, dated 2026)
